{"source": "patent US20200129492A1", "about": "“TREATMENT OF CANCER WITH DIHYDROPYRIDINES” (MENRI GROUP LTD., priority 2017, published 2020)", "system": "NSCLC A549 lung cancer cells", "test": "XTT assay, cell proliferation after 72 hours incubation, IC50", "type": "cell-based", "conditions": "Homo sapiens, A549, 72 h, read-out: Plus DMSO (Control), IC-50", "experimental": "Example 10 (see also FIG. 10) is a study to determine the effect of the combination of calcium blockers on the proliferation of cancer cells. NSCLC A549 lung cancer cells were incubated with various concentrations of a combination of calcium blockers ranging from 1 μM to 50 μM. […] An XTT assay was then performed. The cell proliferation was then calculated. Results are representative of at least three independent experiments. IC50 was calculated from the % inhibition data."}
{"smiles": "CN(C)C(=O)C(CCN1CCC(O)(c2ccc(Cl)cc2)CC1)(c1ccccc1)c1ccccc1", "note": "[Loperamide, 4-[4-(4-Chlorophenyl)-4-hydroxypiperidin-1-yl]-N,N-dimethyl-2,2-diphenylbutanamide]", "values": [{"measurement": "IC50", "value": 12.2, "unit": "µM"}]}
